The labels stand for the following.
T1: 重组人PLVAP/PV-1蛋白 (human) (UniProt Q9BX97)
T1 sequence (looked up): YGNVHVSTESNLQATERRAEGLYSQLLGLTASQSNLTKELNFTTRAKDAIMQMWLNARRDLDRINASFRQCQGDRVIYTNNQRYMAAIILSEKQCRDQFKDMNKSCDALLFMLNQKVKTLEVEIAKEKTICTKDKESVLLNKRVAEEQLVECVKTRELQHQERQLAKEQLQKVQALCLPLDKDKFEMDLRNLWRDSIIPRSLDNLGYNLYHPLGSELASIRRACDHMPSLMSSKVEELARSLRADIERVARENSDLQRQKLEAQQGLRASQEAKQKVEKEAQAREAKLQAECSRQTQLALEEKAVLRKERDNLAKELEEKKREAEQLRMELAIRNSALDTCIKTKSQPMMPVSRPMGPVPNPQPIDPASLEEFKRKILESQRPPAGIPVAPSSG

B1: 抗体亚型为IgG1(N297A)的抗体HLPV-P03 (antibody, V domains shown, not shown: a dimerising Fc or GST)
VH: QVQLVQSGAEVKKPGASVKVSCKASGYTFEDYYMYWVRQAPGQGLEWIGEVNPTQGDVNFNEMFKSRVTMTVDTSTSTAYMELSSLRSEDTAVYYCTSIFYWGQGTLVTVSS
VL: DIVMTQSPSSLSASVGDRVTITCKASQDIKYQLSWYQQKPGKAPKTLIYYATFLADGVPSRFSGSGSGQEFTLTISSLQPEDFATYYCVQHDDRPFTFGQGTKLEIK
B2: 抗体亚型为IgG1(N297A)的抗体HLPV-P11 (antibody, V domains shown, not shown: a dimerising Fc or GST)
VH: QVQLVQSGAEVKKPGASVKVSCKASGYTFTDYYMYWVRQAPGQGLEWIGEINPTQGDVNFNEMFKSRVTMTVDTSTSTAYMELSSLRSEDTAVYYCTTIFYWGQGTLVTVSS
VL: DIVMTQSPSSLSASVGDRVTITCKASQDIKYQLSWYQQKPGKAPKTLIYYATDLADGVPSRFSGSGSGQEFTLTISSLQPEDFATYYCVQHDDRPFSFGQGTKLEIK
B3: 抗体亚型为IgG4(S228P)的抗体HLPV-P11 (antibody, V domains shown, not shown: a dimerising Fc or GST)
VH: QVQLVQSGAEVKKPGASVKVSCKASGYTFTDYYMYWVRQAPGQGLEWIGEINPTQGDVNFNEMFKSRVTMTVDTSTSTAYMELSSLRSEDTAVYYCTTIFYWGQGTLVTVSS
VL: DIVMTQSPSSLSASVGDRVTITCKASQDIKYQLSWYQQKPGKAPKTLIYYATDLADGVPSRFSGSGSGQEFTLTISSLQPEDFATYYCVQHDDRPFSFGQGTKLEIK
B4: 抗体亚型为IgG4(S228P)的抗体HLPV-P14 (antibody, V domains shown, not shown: a dimerising Fc or GST)
VH: QVQLVQSGAEVKKPGASVKVSCKASGYTFTNYYMYWVRQAPGQGLEWIGEINPTSGDVNFNEMFKSRVTMTVDTSTSTAYMELSSLRSEDTAVYYCTSIFYWGQGTLVTVSS
VL: DIVMTQSPSSLSASVGDRVTITCKASQDIKYQLSWYQQKPGKAPKTLIYYAGDLADGVPSRFSGSGSGQEFTLTISSLQPEDFATYYCVQHDDRPFTFGQGTKLEIK
B5: 抗体亚型为IgG4(S228P)的抗体HLPV-P09 (antibody, V domains shown, not shown: a dimerising Fc or GST)
VH: QVQLVQSGAEVKKPGASVKVSCKASGYTFTDYYMYWVRQAPGQGLEWIGEINPTQGDVNFNEMFKSRVTMTVDTSTSTAYMELSSLRSEDTAVYYCTTIFYWGQGTLVTVSS
VL: DIVMTQSPSSLSASVGDRVTITCKASQDIGYQLSWYQQKPGKAPKTLIYYATDLADGVPSRFSGSGSGQEFTLTISSLQPEDFATYYCVQHYDRPFTFGQGTKLEIK
B6: 抗体亚型为IgG1(N297A)的抗体HLPV-P08 (antibody, V domains shown, not shown: a dimerising Fc or GST)
VH: QVQLVQSGAEVKKPGASVKVSCKASGYTFTDYYMYWVRQAPGQGLEWIGEINPTQGDVNFNEMFKSRVTMTVDTSTSTAYMELSSLRSEDTAVYYCTTIFYWGQGTLVTVSS
VL: DIVMTQSPSSLSASVGDRVTITCKASQDIKYQLTWYQQKPGKAPKTLIYYATDLADGVPSRFSGSGSGQEFTLTISSLQPEDFATYYCVSHDDRPFTFGQGTKLEIK
B7: 抗体亚型为IgG1(N297A)的抗体HLPV-P14 (antibody, V domains shown, not shown: a dimerising Fc or GST)
VH: QVQLVQSGAEVKKPGASVKVSCKASGYTFTNYYMYWVRQAPGQGLEWIGEINPTSGDVNFNEMFKSRVTMTVDTSTSTAYMELSSLRSEDTAVYYCTSIFYWGQGTLVTVSS
VL: DIVMTQSPSSLSASVGDRVTITCKASQDIKYQLSWYQQKPGKAPKTLIYYAGDLADGVPSRFSGSGSGQEFTLTISSLQPEDFATYYCVQHDDRPFTFGQGTKLEIK
B8: 抗体亚型为IgG4(S228P)的抗体HLPV-P10 (antibody, V domains shown, not shown: a dimerising Fc or GST)
VH: QVQLVQSGAEVKKPGASVKVSCKASGYTFTDYYMYWVRQAPGQGLEWIGEINPTQGDVNFNEMFKSRVTMTVDTSTSTAYMELSSLRSEDTAVYYCTSIFYWGQGTLVTVSS
VL: DIVMTQSPSSLSASVGDRVTITCKASQDIKYQLTWYQQKPGKAPKTLIYYATDLADGVPSRFSGSGSGQEFTLTISSLQPEDFATYYCVQHSDRPFTFGQGTKLEIK
B9: 抗体亚型为IgG1(N297A)的抗体HLPV-P09 (antibody, V domains shown, not shown: a dimerising Fc or GST)
VH: QVQLVQSGAEVKKPGASVKVSCKASGYTFTDYYMYWVRQAPGQGLEWIGEINPTQGDVNFNEMFKSRVTMTVDTSTSTAYMELSSLRSEDTAVYYCTTIFYWGQGTLVTVSS
VL: DIVMTQSPSSLSASVGDRVTITCKASQDIGYQLSWYQQKPGKAPKTLIYYATDLADGVPSRFSGSGSGQEFTLTISSLQPEDFATYYCVQHYDRPFTFGQGTKLEIK
B10: 抗体亚型为IgG1(N297A)的抗体HLPV-P05 (antibody, V domains shown, not shown: a dimerising Fc or GST)
VH: QVQLVQSGAEVKKPGASVKVSCKASGYTFTDYYMYWVRQAPGQGLEWIGEINPTQGDVNFNEMFKSRVTMTVDTSTSTAYMELSSLRSEDTAVYYCTSIFYWGQGTLVTVSS
VL: DIVMTQSPSSLSASVGDRVTITCKASQDIKYQLTWYQQKPGKAPKTLIYYATDLADGVPSRFSGSGSGQEFTLTISSLQPEDFATYYCVQHDNRPFTFGQGTKLEIK
B11: 抗体亚型为IgG4(S228P)的抗体HLPV-P08 (antibody, V domains shown, not shown: a dimerising Fc or GST)
VH: QVQLVQSGAEVKKPGASVKVSCKASGYTFTDYYMYWVRQAPGQGLEWIGEINPTQGDVNFNEMFKSRVTMTVDTSTSTAYMELSSLRSEDTAVYYCTTIFYWGQGTLVTVSS
VL: DIVMTQSPSSLSASVGDRVTITCKASQDIKYQLTWYQQKPGKAPKTLIYYATDLADGVPSRFSGSGSGQEFTLTISSLQPEDFATYYCVSHDDRPFTFGQGTKLEIK
B12: 抗体亚型为IgG1(N297A)的抗体HLPV-P10 (antibody, V domains shown, not shown: a dimerising Fc or GST)
VH: QVQLVQSGAEVKKPGASVKVSCKASGYTFTDYYMYWVRQAPGQGLEWIGEINPTQGDVNFNEMFKSRVTMTVDTSTSTAYMELSSLRSEDTAVYYCTSIFYWGQGTLVTVSS
VL: DIVMTQSPSSLSASVGDRVTITCKASQDIKYQLTWYQQKPGKAPKTLIYYATDLADGVPSRFSGSGSGQEFTLTISSLQPEDFATYYCVQHSDRPFTFGQGTKLEIK
B13: 抗体亚型为IgG4(S228P)的抗体HLPV-P03 (antibody, V domains shown, not shown: a dimerising Fc or GST)
VH: QVQLVQSGAEVKKPGASVKVSCKASGYTFEDYYMYWVRQAPGQGLEWIGEVNPTQGDVNFNEMFKSRVTMTVDTSTSTAYMELSSLRSEDTAVYYCTSIFYWGQGTLVTVSS
VL: DIVMTQSPSSLSASVGDRVTITCKASQDIKYQLSWYQQKPGKAPKTLIYYATFLADGVPSRFSGSGSGQEFTLTISSLQPEDFATYYCVQHDDRPFTFGQGTKLEIK
B14: 抗体亚型为IgG4(S228P)的抗体HLPV-P05 (antibody, V domains shown, not shown: a dimerising Fc or GST)
VH: QVQLVQSGAEVKKPGASVKVSCKASGYTFTDYYMYWVRQAPGQGLEWIGEINPTQGDVNFNEMFKSRVTMTVDTSTSTAYMELSSLRSEDTAVYYCTSIFYWGQGTLVTVSS
VL: DIVMTQSPSSLSASVGDRVTITCKASQDIKYQLTWYQQKPGKAPKTLIYYATDLADGVPSRFSGSGSGQEFTLTISSLQPEDFATYYCVQHDNRPFTFGQGTKLEIK

Results are given in words; binding and its absence hold for the method and conditions named. Some results given as binding are weak or reduced against the parent protein; the word gives no strength.

In this assay the target is T1, 重组人PLVAP/PV-1蛋白 (human). As to the kind of experiment: SPR, Biacore T200, as in Example 2.
In the case of B1, the binding entry is “binds”.
For B2 the value was “binds”.
The same measure for B3: “binds”; for B4: “binds”.
For B5 the value was “binds”; for B6, “binds”.
As to B7, the binding result was “binds”.
As for B8, the binding result was “binds”.
The same measure for B9: “binds”; for B10: “binds”; for B11: “binds”.
The same measure for B12: “binds”; for B13: “binds”; for B14: “binds”.
